# This is one part of the list.
# B1: R2-fiber (Pseudomonas aeruginosa), Q9S576 (protein)
# chain: HHHHHHKVAKDLVVSLAYQVRTEDGVLVDESPVSAPLDYLHGHGSLISGLETALEGHEVGDKFDVAVGANDAYGQYDENLVQRVPKDVFMGVDELQVGMRFLAETDQGPVPVEITAVEDDHVVVDGNHMLAGQNLKFNVEVVAIREATEEELAHGHVHGAHDHHHDHDHDGCCGGHGHDHGHEHGGEGCCGGKGNGGCGCHENLYFQGVTAGMALAATDIPGLDASKLVSGVLAEQRLPVFARGLATAVSNSSDPNTATVPLMLTNHANGPVAGRYFYIQSMFYPDQNGNASQIATSYNATSEMYVRVSYAANPSIREWLPWQRCDIGGSFTKEADGELPGGVNLDSMVTSGWWSQSFTAQAASGANYPIVRAGLLHVYAASSNFIYQTYQAYDGESFYFRCRHSNTWFPWRRMWHGGDFNPSDYLLKSGFYWNALPGKPATFPPSAHNHDVGQLTSGILPLARGGVGSNTAAGARSTIGAGVPATASLGASGWWRDNDTGLIRQWGQVTCPADADASITFPIPFPTLCLGGYANQTSAFHPGTDASTGFRGATTTTAVIRNGYFAQAVLSWEAFGR
# How the values were obtained:
# Assay in all cases: glycan array binding signal (z-score within array); higher = stronger binding
# Conditions in all cases: glycan notation: IUPAC condensed, linker removed
# [1] = target: Fuc(a1-2)Gal(b1-4)GlcNAc(b1-3)Gal(b1-4)GlcNAc(b1-2)Man(a1-3)[Fuc(a1-2)Gal(b1-4)GlcNAc(b1-3)Gal(b1-4)GlcNAc(b1-2)Man(a1-6)]Man(b1-4)GlcNAc(b1-4)GlcNAc
# Summary of the method: (§1)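 Negative Z-scores can be read as non-binding. The Z-score is calculated within each array and then averaged across arrays of one protein sequence at different concentrations or buffers and across linkers. Arrays, 3228 in all, were curated from the Consortium for Functional Glycomics database and kept only where the protein sequence was available.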
# [2] = target: Fuc(a1-2)Gal(b1-4)GlcNAc(b1-3)Gal(b1-4)GlcNAc(b1-3)Gal(b1-4)GlcNAc
# Summary of the method: as §1
# [3] = target: Fuc(a1-2)Gal(b1-4)GlcNAc(b1-3)GalNAc
# Summary of the method: as §1
# [4] = target: Fuc(a1-2)Gal(b1-4)GlcNAc(b1-3)[Fuc(a1-2)Gal(b1-4)GlcNAc(b1-6)]GalNAc
# Summary of the method: as §1
# [5] = target: Fuc(a1-2)Gal(b1-4)GlcNAc(b1-3)[Fuc(a1-3)[Gal(b1-4)]GlcNAc(b1-6)]Gal(b1-4)Glc
# Summary of the method: as §1
# [6] = target: Fuc(a1-2)Gal(b1-4)GlcNAc(b1-6)GalNAc
# Summary of the method: as §1
# [7] = target: Fuc(a1-2)Gal(b1-4)GlcNAc6S
# Summary of the method: as §1
# [8] = target: Fuc(a1-2)Gal(b1-4)[Fuc(a1-3)]GlcNAc
# Summary of the method: as §1
# [9] = target: Fuc(a1-2)Gal(b1-4)[Fuc(a1-3)]GlcNAc(b1-2)Man(a1-3)[Fuc(a1-2)Gal(b1-4)[Fuc(a1-3)]GlcNAc(b1-2)Man(a1-6)]Man(b1-4)GlcNAc(b1-4)[Fuc(a1-6)]GlcNAc
# Summary of the method: as §1
# [10] = target: Fuc(a1-2)Gal(b1-4)[Fuc(a1-3)]GlcNAc(b1-2)[Fuc(a1-2)Gal(b1-4)[Fuc(a1-3)]GlcNAc(b1-4)]Man(a1-3)[Fuc(a1-2)Gal(b1-4)[Fuc(a1-3)]GlcNAc(b1-2)Man(a1-6)]Man(b1-4)GlcNAc(b1-4)GlcNAc
# Summary of the method: as §1
# [11] = target: Fuc(a1-2)Gal(b1-4)[Fuc(a1-3)]GlcNAc(b1-3)Gal(b1-4)[Fuc(a1-3)]GlcNAc
# Summary of the method: as §1
# [12] = target: Fuc(a1-2)Gal(b1-4)[Fuc(a1-3)]GlcNAc(b1-3)Gal(b1-4)[Fuc(a1-3)]GlcNAc(b1-3)Gal(b1-4)[Fuc(a1-3)]GlcNAc
# Summary of the method: as §1
# [13] = target: Fuc(a1-2)Gal(b1-4)[Fuc(a1-3)]GlcNAc(b1-3)GalNAc
# Summary of the method: as §1
# [14] = target: Fuc(a1-2)Gal(b1-4)[Fuc(a1-3)]GlcNAc(b1-3)[Neu5Ac(a2-6)Gal(b1-4)GlcNAc(b1-6)]Gal(b1-4)Glc
# Summary of the method: as §1
# [15] = target: Fuc(a1-2)Gal3S(b1-4)GlcNAc
# Summary of the method: as §1
# [16] = target: Fuc(a1-2)Gal6S(b1-3)GlcNAc
# Summary of the method: as §1
# [17] = target: Fuc(a1-2)Gal6S(b1-3)GlcNAc6S
# Summary of the method: as §1
# Fuc(a1-2)Gal6S(b1-4)Glc = target: Fuc(a1-2)Gal6S(b1-4)Glc
# Summary of the method: as §1
# [18] = target: Fuc(a1-2)Gal6S(b1-4)Glc6S
# Summary of the method: as §1
# Fuc(a1-2)[Gal(a1-3)]Gal = target: Fuc(a1-2)[Gal(a1-3)]Gal
# Summary of the method: as §1
# [19] = target: Fuc(a1-2)[Gal(a1-3)]Gal(b1-3)GalNAc
# Summary of the method: as §1
# [20] = target: Fuc(a1-2)[Gal(a1-3)]Gal(b1-3)GalNAc(b1-3)Gal(a1-4)Gal(b1-4)Glc
# Summary of the method: as §1
# [21] = target: Fuc(a1-2)[Gal(a1-3)]Gal(b1-3)GlcNAc
# Summary of the method: as §1
# [22] = target: Fuc(a1-2)[Gal(a1-3)]Gal(b1-3)GlcNAc(b1-2)Man(a1-3)[Fuc(a1-2)[Gal(a1-3)]Gal(b1-3)GlcNAc(b1-2)Man(a1-6)]Man(b1-4)GlcNAc(b1-4)GlcNAc
# Summary of the method: as §1
# [23] = target: Fuc(a1-2)[Gal(a1-3)]Gal(b1-3)GlcNAc(b1-2)Man(a1-3)[Fuc(a1-2)[Gal(a1-3)]Gal(b1-3)GlcNAc(b1-2)Man(a1-6)]Man(b1-4)GlcNAc(b1-4)[Fuc(a1-6)]GlcNAc
# Summary of the method: as §1
# [24] = target: Fuc(a1-2)[Gal(a1-3)]Gal(b1-3)GlcNAc(b1-3)GalNAc
# Summary of the method: as §1
# [25] = target: Fuc(a1-2)[Gal(a1-3)]Gal(b1-3)GlcNAc(b1-6)GalNAc
# Summary of the method: as §1
# [26] = target: Fuc(a1-2)[Gal(a1-3)]Gal(b1-4)Glc
# Summary of the method: as §1
# [27] = target: Fuc(a1-2)[Gal(a1-3)]Gal(b1-4)GlcNAc
# Summary of the method: as §1
# [28] = target: Fuc(a1-2)[Gal(a1-3)]Gal(b1-4)GlcNAc(b1-2)Man
# Summary of the method: as §1
binder,measurement,setting,value
B1,glycan array binding signal (z-score),[1],-1.36
same,glycan array binding signal (z-score),[2],0.478
same,glycan array binding signal (z-score),[3],0.212
same,glycan array binding signal (z-score),[4],-1.17
same,glycan array binding signal (z-score),[5],0.197
same,glycan array binding signal (z-score),[6],-0.579
same,glycan array binding signal (z-score),[7],-0.895
same,glycan array binding signal (z-score),[8],0.895
same,glycan array binding signal (z-score),[9],0.171
same,glycan array binding signal (z-score),[10],0.052
same,glycan array binding signal (z-score),[11],-0.433
same,glycan array binding signal (z-score),[12],-0.5
same,glycan array binding signal (z-score),[13],1.39
same,glycan array binding signal (z-score),[14],-0.021
same,glycan array binding signal (z-score),[15],0.037
same,glycan array binding signal (z-score),[16],-0.964
same,glycan array binding signal (z-score),[17],0.575
same,glycan array binding signal (z-score),Fuc(a1-2)Gal6S(b1-4)Glc,-0.893
same,glycan array binding signal (z-score),[18],-0.825
same,glycan array binding signal (z-score),Fuc(a1-2)[Gal(a1-3)]Gal,-0.066
same,glycan array binding signal (z-score),[19],-0.343
same,glycan array binding signal (z-score),[20],-0.281
same,glycan array binding signal (z-score),[21],-0.373
same,glycan array binding signal (z-score),[22],0.716
same,glycan array binding signal (z-score),[23],-0.392
same,glycan array binding signal (z-score),[24],-0.926
same,glycan array binding signal (z-score),[25],-0.263
same,glycan array binding signal (z-score),[26],-0.47
same,glycan array binding signal (z-score),[27],-0.962
same,glycan array binding signal (z-score),[28],-0.343

# 2 records drawn at random from the list so far:
binder,measurement,setting,value
B1,glycan array binding signal (z-score),[23],-0.392
same,glycan array binding signal (z-score),[22],0.716
